Measurements from patent US20040139485A1.
These are yes or no findings as the source states them, for the method shown. Some binding calls cover weakened binding; strength is not graded here.

The chains behind the UniProt entries cited, without tags or fusion partners. Residues count along the entry.
UniProt P03070, residues 84-708: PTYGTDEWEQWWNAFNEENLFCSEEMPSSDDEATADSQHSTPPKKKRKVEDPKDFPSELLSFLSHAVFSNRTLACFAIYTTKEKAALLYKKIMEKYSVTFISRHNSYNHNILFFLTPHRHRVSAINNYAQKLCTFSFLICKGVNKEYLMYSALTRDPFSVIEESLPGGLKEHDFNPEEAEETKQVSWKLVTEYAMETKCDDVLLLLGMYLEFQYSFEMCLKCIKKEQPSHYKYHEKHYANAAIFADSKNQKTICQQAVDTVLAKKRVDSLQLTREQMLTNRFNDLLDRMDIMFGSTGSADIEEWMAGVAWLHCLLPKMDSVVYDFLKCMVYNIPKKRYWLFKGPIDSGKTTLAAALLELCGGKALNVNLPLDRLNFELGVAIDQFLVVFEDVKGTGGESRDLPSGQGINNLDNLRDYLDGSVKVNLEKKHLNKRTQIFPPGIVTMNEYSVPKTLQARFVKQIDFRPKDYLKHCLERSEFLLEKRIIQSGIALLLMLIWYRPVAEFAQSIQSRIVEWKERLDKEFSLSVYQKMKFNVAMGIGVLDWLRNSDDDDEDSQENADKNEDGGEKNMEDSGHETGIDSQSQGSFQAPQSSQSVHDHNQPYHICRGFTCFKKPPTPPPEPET

Biological target: T1, fragment of Rb (1.9 kb BsmHI-SalI fragment of Rb from pASRB2) cloned into pGBT9 (UniProt P06400)
T1 sequence (looked up): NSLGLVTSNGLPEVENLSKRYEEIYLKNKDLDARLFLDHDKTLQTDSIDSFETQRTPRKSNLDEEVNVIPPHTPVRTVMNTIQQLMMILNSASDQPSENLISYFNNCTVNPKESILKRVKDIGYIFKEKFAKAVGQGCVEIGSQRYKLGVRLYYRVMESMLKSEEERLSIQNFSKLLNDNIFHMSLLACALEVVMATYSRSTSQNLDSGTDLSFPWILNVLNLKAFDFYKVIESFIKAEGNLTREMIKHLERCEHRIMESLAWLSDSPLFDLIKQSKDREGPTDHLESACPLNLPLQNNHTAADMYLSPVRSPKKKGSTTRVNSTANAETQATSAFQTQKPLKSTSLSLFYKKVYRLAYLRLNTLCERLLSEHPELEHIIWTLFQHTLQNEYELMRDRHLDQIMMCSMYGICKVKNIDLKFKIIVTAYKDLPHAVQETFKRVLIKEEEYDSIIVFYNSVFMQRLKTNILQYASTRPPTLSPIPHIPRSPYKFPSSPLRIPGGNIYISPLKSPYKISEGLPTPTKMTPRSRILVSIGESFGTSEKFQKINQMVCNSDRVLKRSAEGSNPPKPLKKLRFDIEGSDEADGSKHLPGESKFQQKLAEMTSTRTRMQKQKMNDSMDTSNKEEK
Test: yeast two-hybrid (GAL4), positive control

In the case of “SV40 large T antigen (pTD1) (from UniProt P03070 84-708)”, the binding is reported as “binds”.
